No constants are given. Whether binding was seen depends on the method and setting. In cells and extracts the contact can be indirect. Some results given as binding are weak or reduced against the parent protein; the word gives no strength.
Target: histone deacetylase 5 (mouse (endogenous in CLU177)) (UniProt Q9Z2V6)
Experiment: co-IP; endogenous proteins; CLU177 cells lysed in NP40 lysis buffer (25 mM Tris-HCl pH 7.4, 150 mM NaCl, 1 mM EDTA, 1% NP-40); 500 ug lysate with 4 ug anti-HDAC5, protein A/G magnetic beads overnight at 4 C, washed with PBS 0.02% Tween 20; blots for HDAC5, STAT3 and pSTAT3 T705

Sequences of proteins named here, by UniProt entry; tags and fusion partners are left off.
UniProt Q9Z2V6: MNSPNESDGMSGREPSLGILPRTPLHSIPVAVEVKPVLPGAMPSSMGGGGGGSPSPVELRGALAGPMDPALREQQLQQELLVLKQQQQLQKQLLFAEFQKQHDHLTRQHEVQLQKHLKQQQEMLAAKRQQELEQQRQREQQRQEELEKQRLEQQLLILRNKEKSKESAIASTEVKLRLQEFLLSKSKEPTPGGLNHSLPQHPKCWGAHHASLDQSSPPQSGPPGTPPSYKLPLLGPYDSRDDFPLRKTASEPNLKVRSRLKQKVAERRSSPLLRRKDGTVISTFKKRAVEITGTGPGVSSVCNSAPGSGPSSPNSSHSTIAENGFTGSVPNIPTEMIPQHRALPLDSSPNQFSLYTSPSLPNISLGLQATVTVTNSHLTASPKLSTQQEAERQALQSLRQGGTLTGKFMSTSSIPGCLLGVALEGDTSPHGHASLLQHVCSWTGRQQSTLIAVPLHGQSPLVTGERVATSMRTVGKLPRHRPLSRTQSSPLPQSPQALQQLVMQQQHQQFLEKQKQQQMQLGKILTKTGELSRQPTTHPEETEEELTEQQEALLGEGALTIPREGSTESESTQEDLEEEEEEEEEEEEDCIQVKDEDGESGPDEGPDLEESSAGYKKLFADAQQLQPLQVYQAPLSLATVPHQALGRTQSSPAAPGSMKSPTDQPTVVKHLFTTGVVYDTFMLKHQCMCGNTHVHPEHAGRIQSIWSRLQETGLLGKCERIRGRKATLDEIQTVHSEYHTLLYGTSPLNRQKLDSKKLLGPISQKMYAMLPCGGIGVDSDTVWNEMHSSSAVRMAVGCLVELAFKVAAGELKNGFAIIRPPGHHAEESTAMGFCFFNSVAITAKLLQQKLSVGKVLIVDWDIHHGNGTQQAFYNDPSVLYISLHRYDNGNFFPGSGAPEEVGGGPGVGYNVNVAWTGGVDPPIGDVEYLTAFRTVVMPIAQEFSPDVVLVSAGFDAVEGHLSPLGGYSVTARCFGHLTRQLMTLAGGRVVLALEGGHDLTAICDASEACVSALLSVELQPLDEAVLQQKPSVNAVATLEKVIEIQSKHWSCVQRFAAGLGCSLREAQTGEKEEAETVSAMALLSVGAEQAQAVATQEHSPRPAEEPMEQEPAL
UniProt P42227: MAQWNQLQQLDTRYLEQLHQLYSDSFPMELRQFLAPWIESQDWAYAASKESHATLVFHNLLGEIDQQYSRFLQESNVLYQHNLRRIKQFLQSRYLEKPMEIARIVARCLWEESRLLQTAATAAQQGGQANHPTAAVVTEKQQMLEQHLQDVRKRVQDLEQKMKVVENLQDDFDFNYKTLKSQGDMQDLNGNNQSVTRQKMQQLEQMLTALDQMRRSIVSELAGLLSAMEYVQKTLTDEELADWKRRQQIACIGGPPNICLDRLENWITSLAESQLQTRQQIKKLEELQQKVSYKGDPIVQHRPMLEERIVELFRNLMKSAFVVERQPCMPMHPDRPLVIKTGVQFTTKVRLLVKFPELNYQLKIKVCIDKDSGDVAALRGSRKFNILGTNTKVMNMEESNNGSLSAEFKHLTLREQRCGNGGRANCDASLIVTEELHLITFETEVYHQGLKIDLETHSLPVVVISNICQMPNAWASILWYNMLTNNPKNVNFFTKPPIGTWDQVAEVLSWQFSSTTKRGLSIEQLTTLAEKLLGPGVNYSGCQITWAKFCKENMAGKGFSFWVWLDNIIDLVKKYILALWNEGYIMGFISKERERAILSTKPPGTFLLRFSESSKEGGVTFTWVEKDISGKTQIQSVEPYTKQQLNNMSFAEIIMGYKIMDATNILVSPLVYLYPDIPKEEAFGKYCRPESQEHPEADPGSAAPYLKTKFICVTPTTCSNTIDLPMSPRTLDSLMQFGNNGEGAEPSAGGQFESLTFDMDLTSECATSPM

With STAT3 (from UniProt P42227 1-770) the binding was “binds”.

Source: PMC4773494
